# Primary screen of a compound library

The chains behind the UniProt entries cited, without tags or fusion partners.
UniProt E9BF75, entry or part of it: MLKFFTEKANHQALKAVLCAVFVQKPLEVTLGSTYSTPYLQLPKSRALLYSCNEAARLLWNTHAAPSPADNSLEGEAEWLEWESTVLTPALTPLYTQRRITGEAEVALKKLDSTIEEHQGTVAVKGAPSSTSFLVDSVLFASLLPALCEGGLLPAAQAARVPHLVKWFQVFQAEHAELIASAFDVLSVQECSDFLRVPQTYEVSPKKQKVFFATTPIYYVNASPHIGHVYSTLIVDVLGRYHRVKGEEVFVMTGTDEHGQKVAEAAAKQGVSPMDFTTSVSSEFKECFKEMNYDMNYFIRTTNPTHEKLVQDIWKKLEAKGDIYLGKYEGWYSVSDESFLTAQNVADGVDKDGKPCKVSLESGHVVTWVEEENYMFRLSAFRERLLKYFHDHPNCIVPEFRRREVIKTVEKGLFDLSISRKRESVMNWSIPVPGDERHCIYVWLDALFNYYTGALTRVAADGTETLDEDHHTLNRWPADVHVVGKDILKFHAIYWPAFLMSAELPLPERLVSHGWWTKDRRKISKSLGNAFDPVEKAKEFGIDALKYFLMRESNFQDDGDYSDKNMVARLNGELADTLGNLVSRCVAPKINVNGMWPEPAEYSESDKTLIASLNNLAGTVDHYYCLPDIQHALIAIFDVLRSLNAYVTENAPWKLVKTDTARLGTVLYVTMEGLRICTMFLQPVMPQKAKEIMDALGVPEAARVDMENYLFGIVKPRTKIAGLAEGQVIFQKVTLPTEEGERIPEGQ

Data taken from ChEMBL document CHEMBL3988442, “University of Dundee, Small-Polar-MMV Screening Library” (2021).

All values are in %.
How 0% and 100% were set is not recorded. Most values in the screen are low, and negative values occur.
This is an unselected part of the compounds tested.

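Primary screen of methionyl-tRNA synthetase; the read-out is not stated. Target: Methionyl-tRNA synthetase (putative), Leishmania donovani (UniProt E9BF75). The test concentration is not given. The values are filed as inhibition. About 68,000 compounds were tested under these conditions; 0.035% (about 24) showed 50% or more at least once.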

| compound | inhibition |
|---|---|
| `Brc1ccc(-c2nnc(CN(Cc3cccs3)CC3CCCO3)o2)s1` (stereo not given) | 20.16 |
| `CCNC(=O)C1(Cc2ccc(-c3ccccc3)cc2)CCCNC1` (stereo not given) | 6.962 |
| `Cc1c(C2SCC(=O)Nc3c2c(O)nn3C2CCCCC2)cnn1C` (stereo not given) | 4.665 |
| `CC(C)NC(=O)[C@H]1C[C@@H]2CN(C(=O)NCCc3ccccc3)C[C@H]1O2` | 3.922 |
| `CCc1noc(C(C)N2CCN(CCOCC(F)(F)F)CC2)n1` (stereo not given) | 7.937 |
| `O=C(c1scc2c1OCCO2)N1CCC(Cc2cccc(CO)c2)C1` (stereo not given) | 11.76 |
| `Cc1cc(CCC(=O)N2CCOCC2)ccc1Br` | 10.86 |
| `O=C(NCCNc1ncccn1)N1CCN(c2nccs2)CC1` | 16.87 |
| `O=C(NCCN1CCCCC1)C(c1ccccc1)N1CCCC1` (stereo not given) | 14.72 |
| `Cc1cc(N2CCN(C3CCOCC3)CC(C(=O)N(C)C)C2)ncn1` (stereo not given) | 7.302 |
| `Cc1cn2c(n1)CCC(NC(=O)c1ccc(OCC3CC3)nc1)C2` (stereo not given) | 13.19 |
| `CCc1ccccc1C(=O)N1C[C@@H](CN2CCOCC2)[C@@H](CO)C1` | 8.696 |
| `O=C(NCCc1ccncc1)c1cccc(S(=O)(=O)N[C@@H]2CCNC2)c1` | 8.125 |
| `CCn1cnnc1CN(C)C(=O)C1CCC(=O)N(CC2CCCCC2)C1` (stereo not given) | 8.939 |
| `O=C(c1ccccc1F)N1C[C@H]2CCC[C@@]2(COCc2ccncc2)C1` | 18.44 |
| `CC(=O)N(C)Cc1cncc(C2CCCN2C2CCOCC2)n1` (stereo not given) | 9.627 |
| `Cc1nn(C)c2ncc(S(=O)(=O)N3CCN4CCCC4C3)cc12` (stereo not given) | 10.13 |
| `COc1ccc(F)c(F)c1CN1CCN(CC(C)C)C(=O)C1C` (stereo not given) | 7.639 |
| `Cn1cc(CC2CC(=O)N(Cc3ccc(OC(F)F)cc3)C2=O)cn1` (stereo not given) | 5.222 |
| `CN(C)c1ccc(C(=O)N2CCCC2c2noc(C3CC3)n2)nn1` (stereo not given) | 3.492 |
| `O=C(c1ccc(-c2nc[nH]n2)cc1)N1CC[C@H](CO)[C@@H](O)C1` | 9.375 |
| `CNC(=O)[C@H]1C[C@@H]2CN(S(=O)(=O)c3cccc(F)c3)C[C@@H]2N1C` | 17.04 |
| `Cc1n[nH]c(C)c1CCC(=O)NCC1(O)CCN(c2ccccn2)C1` (stereo not given) | 15.43 |
| `CCc1noc(C(C)N(C)CC(=O)Nc2ccccc2Cl)n1` (stereo not given) | 12.57 |
| `NC(=O)C1CCN(c2nc3nccc(-c4ccccc4)c3c(=O)[nH]2)CC1` | 11.5 |
| `Cc1noc(C)c1CN1CC[C@H]2[C@H]1CCN2CC1CCOCC1` | 1.639 |
| `O=C(c1nc(Cc2c[nH]c3ccccc23)no1)N1CCOCC1` | 5.497 |
| `O=C(N1CCCC1)N1CCN(CC2CC2)c2ncccc2C1` | 14.29 |
| `CN(Cc1cccc2cccnc12)C1CCS(=O)(=O)C1` (stereo not given) | 5.063 |
| `Cc1noc(C)c1CN(C)Cc1cnc(N2CCOCC2)nc1` | 1.72 |
| `CCc1nc(CN2CCC(C(=O)N(C)C)CC2)cs1` | 4.178 |
| `Cc1ccc(-c2nc(CNC3CCc4ncnn4C3)cs2)cc1` (stereo not given) | 14.71 |
| `Cc1cccnc1[C@]1(O)CC[C@H]2CN(Cc3cccc(Cl)c3Cl)C[C@H]21` | 10.73 |
| `COCCN1C[C@H]2CC[C@@H]1CN(C(=O)CCc1n[nH]c(C)c1C)C2` | 13.07 |
| `c1cnc2[nH]c(C3CCCC3)c(CN3CCOCC3)c2c1` | 9.04 |
| `CCC(C)(CCO)NC(=O)c1ccon1` (stereo not given) | -2.842 |
| `COc1cccc(-c2nc(C)c(C(=O)N[C@@H](CC(C)C)C(=O)O)s2)c1` | 13.64 |

The last 4 entries again:

- COCCN1C[C@H]2CC[C@@H]1CN(C(=O)CCc1n[nH]c(C)c1C)C2 : 13.07%
- c1cnc2[nH]c(C3CCCC3)c(CN3CCOCC3)c2c1 : 9.04%
- CCC(C)(CCO)NC(=O)c1ccon1 (stereo not given) : -2.842%
- COc1cccc(-c2nc(C)c(C(=O)N[C@@H](CC(C)C)C(=O)O)s2)c1 : 13.64%